Consider 1 compound from patent publication US5208148A, “Lipophilic fluorescent glycosidase substrates” (Molecular Probes, Inc., priority 1990, dated 1993).

In this series the test system is CRE BAG 2 cells. The experiment in a line: Comparison of FDG with fatty acylated FDG derivatives: cell entry, retention and leakage. It is filed as cell-based, mouse.

No dose or concentration is given here for some results.

Regarding `CCCCCCCC(=O)Nc1ccc2c(c1)C(=O)OC21c2ccc(O[C@@H]3O[C@H](CO)[C@H](O)[C@H](O)[C@H]3O)cc2Oc2cc(O[C@@H]3O[C@H](CO)[C@H](O)[C@H](O)[C@H]3O)ccc21` [C8 FDG], the “time after which fluorescence was noticed outside cell” value was found to be 1 h.
